Source: PubChem BioAssay AID256 (DTP/NCI, 2004)
The list shows only some results of the screen, not a fair sample: it gathers tests that were run many times, whatever their T/C, doses with no T/C, and many T/C values between a quarter and a half above the control. Further doses and runs are listed elsewhere. T/C gives the treated animals as a percentage of the vehicle group. Some entries give survivors of the animals treated and no T/C: the source files T/C as zero there, which appears to mark a toxic dose or a test without result, not a measured value. Some doses without a T/C left all or most animals alive at the check, yet need not have been tolerated: the source hardly ever lists a survival T/C far under the control, and the zero likely stands for such cases as well. Survivors were counted at the toxicity check, usually on the fifth day, unless a day is given; later deaths do not show. Schedules are NCI's codes, taken here to give the interval after Q, in days (D) or hours (H), and the number of doses after X. Some entries were tested several times; the results are listed from low to high. Some structures stand for samples that the source files as different forms (salt, stereo form or complex); doses refer to the form tested. Where survival is the endpoint, the PubChem record calls one and a half times the control and up active, and a quarter to a half above the control has no call in these data; cut-offs in other NCI protocols can differ.

System: CD2F1 mice, L1210 leukemia ip, survival T/C
Experiment: NCI In Vivo Anticancer Drug Screen. Data for tumor model L1210 Leukemia (intraperitoneal) in CD2F1 (CDF1) mice
Conditions: higher T/C = longer survival
Summary of the method: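 Read-out first: treated-group measurement over vehicle-control measurement, expressed as a ratio. Animals bore a transplanted tumor line and were dosed with compound or vehicle.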

[1] = T/C endpoint: mean survival time, dose: 100.0 mg/kg/injection, schedule: Q01DX009 (ip), vehicle: saline
[2] = T/C endpoint: mean survival time, dose: 200.0 mg/kg/injection, schedule: Q04DX003 (ip), vehicle: saline with Tween-80
[3] = T/C endpoint: mean survival time, dose: 400.0 mg/kg/injection, schedule: Q04DX003 (ip), vehicle: saline with Tween-80
[4] = T/C endpoint: mean survival time, dose: 100.0 mg/kg/injection, schedule: Q01DX009 (ip), vehicle: saline with Tween-80
[5] = T/C endpoint: mean survival time, dose: 200.0 mg/kg/injection, schedule: Q01DX009 (ip), vehicle: saline with Tween-80
[6] = T/C endpoint: mean survival time, dose: 400.0 mg/kg/injection, schedule: Q04DX003 (ip), vehicle: saline
[7] = T/C endpoint: mean survival time, dose: 100.0 mg/kg/injection, schedule: Q04DX003 (ip), vehicle: saline with Tween-80

CC(=O)Nc1nc(Cl)nc2c1ncn2Cc1ccccc1
survivor count (T/C endpoint: mean survival time, dose: 300.0 mg/kg/injection, schedule: Q01DX001 (ip), vehicle: other): 0 of 6

NC(=O)N(CCCl)N=O
T/C (T/C endpoint: mean survival time, dose: 4.0 mg/kg/injection, schedule: Q03DX003 (ip), vehicle: saline): 136 % of control

COC(=O)NC1C(C)OC(OC2C/C=C(/C)C3C=CC4C(OC5CC(OC6CC(O)C(OC7CC(O)C(OC)C(C)O7)C(C)O6)C(O)C(C)O5)C(C)CC(C)C4C3(C)/C(O)=C3\C(=O)OC4(CC(C)C(CO)=CC4/C=C\2C)C3=O)CC1(C)[N+](=O)[O-] (centres undefined)
survivor count (T/C endpoint: median survival time, dose: 200.0 mg/kg/injection, schedule: Q01DX009 (ip), vehicle: Klucel (hydroxypropylcellulose) (HPC)): 2 of 6

NCCc1cc(O)c(O)c(O)c1
T/C [1]: 127 % of control | T/C (T/C endpoint: mean survival time, dose: 400.0 mg/kg/injection, schedule: Q01DX009 (ip), vehicle: saline): 133 % of control

Nc1ncnc(N)c1NC(=O)c1cccc(Cl)c1
survivor count [2]: 0 of 6 | survivor count [3]: 1 of 6

O=[N+]([O-])c1ccc(-n2[nH]nnc2=S)cc1
survivor count (T/C endpoint: mean survival time, dose: 400.0 mg/kg/injection, schedule: Q01DX009 (ip), vehicle: acetone): 0 of 6

COC(=O)CCC(=O)c1cccc(C)c1
survivor count (T/C endpoint: mean survival time, dose: 100.0 mg/kg/injection, schedule: Q04DX003 (ip), vehicle: acetone): 6 of 6

CC(=O)C(Cl)C(=O)c1c(C)[nH]n(-c2ccccc2)c1=O (centres undefined)
survivor count (T/C endpoint: median survival time, dose: 200.0 mg/kg/injection, schedule: Q01DX005 (ip), vehicle: Klucel (hydroxypropylcellulose) (HPC)): 1 of 6 | survivor count (T/C endpoint: median survival time, dose: 400.0 mg/kg/injection, schedule: Q01DX005 (ip), vehicle: Klucel (hydroxypropylcellulose) (HPC)): 0 of 6

COC1OC(CSC#N)C2OC(C)(C)OC12 (centres undefined)
survivor count (T/C endpoint: mean survival time, dose: 75.0 mg/kg/injection, schedule: Q01DX001 (ip), vehicle: saline): 0 of 6 | survivor count (T/C endpoint: mean survival time, dose: 80.0 mg/kg/injection, schedule: Q01DX001 (ip), vehicle: saline): 1 of 6 | survivor count (T/C endpoint: mean survival time, dose: 150.0 mg/kg/injection, schedule: Q01DX001 (ip), vehicle: saline): 0 of 6 | survivor count (T/C endpoint: mean survival time, dose: 300.0 mg/kg/injection, schedule: Q01DX001 (ip), vehicle: saline): 0 of 6

CC1CNC(Cl)O1 (centres undefined)
survivor count [3]: 0 of 3

CCOC(=O)NNC(=O)OCC
survivor count [4]: 3 of 6 | survivor count [5]: 0 of 6 | survivor count (T/C endpoint: mean survival time, dose: 400.0 mg/kg/injection, schedule: Q01DX009 (ip), vehicle: saline with Tween-80): 0 of 6

CCN(CC)Cc1ccc([NH-])c([NH-])c1.CCN(CC)Cc1ccc([NH-])c([NH-])c1.[Cl][Pt+2][Cl].[Cl][Pt+2][Cl].[Cl][Pt+2][Cl]
survivor count (T/C endpoint: mean survival time, dose: 100.0 mg/kg/injection, schedule: Q04DX003 (ip), vehicle: water): 0 of 6 | survivor count (T/C endpoint: mean survival time, dose: 200.0 mg/kg/injection, schedule: Q04DX003 (ip), vehicle: water): 0 of 6

CCOC(=O)/C=C/C(=O)[O-].CCOC(=O)/C=C/C(=O)[O-].NC1CCCCC1N.[Pt+4]
T/C (T/C endpoint: median survival time, dose: 50.0 mg/kg/injection, schedule: Q04DX003 (ip), vehicle: saline with Tween-80): 127 and 138 % of control | T/C (T/C endpoint: median survival time, dose: 100.0 mg/kg/injection, schedule: Q04DX003 (ip), vehicle: saline with Tween-80): 137 % of control

COc1ccc(N=C=S)cc1N=C=S
survivor count (T/C endpoint: mean survival time, dose: 100.0 mg/kg/injection, schedule: Q01DX001 (ip), vehicle: Klucel (hydroxypropylcellulose) (HPC)): 0 of 6 | survivor count (T/C endpoint: mean survival time, dose: 200.0 mg/kg/injection, schedule: Q01DX001 (ip), vehicle: Klucel (hydroxypropylcellulose) (HPC)): 0 of 6 | survivor count (T/C endpoint: mean survival time, dose: 400.0 mg/kg/injection, schedule: Q01DX001 (ip), vehicle: Klucel (hydroxypropylcellulose) (HPC)): 0 of 6

Cc1c2cc3c(cc2cc2c4cc5c(cc4cc[n+]12)OCO5)OCO3 (tested in a mixture with another compound)
T/C (T/C endpoint: mean survival time, dose: 8.33 mg/kg/injection, schedule: Q04DX003 (ip), vehicle: saline): 128 % of control | T/C (T/C endpoint: mean survival time, dose: 12.5 mg/kg/injection, schedule: Q04DX003 (ip), vehicle: saline): 125, 128, 129 % of control | survivor count (T/C endpoint: mean survival time, dose: 100.0 mg/kg/injection, schedule: Q04DX003 (ip), vehicle: saline): 6 of 6 | survivor count (T/C endpoint: mean survival time, dose: 200.0 mg/kg/injection, schedule: Q04DX003 (ip), vehicle: saline): 1 of 6 | survivor count [6]: 0 of 6

CC#CC(=O)SCCNC(=O)CC
survivor count [4]: 5 of 6 | survivor count [2]: 0 of 6

CCOC(=O)C[n+]1ccccc1
survivor count [6]: 0 of 6 and 1 of 6

CC(C)C(N)C(=O)Nc1nncs1 (centres undefined)
T/C (T/C endpoint: mean survival time, dose: 50.0 mg/kg/injection, schedule: Q01DX009 (ip), vehicle: saline): 134 % of control | T/C [1]: 134 % of control | T/C (T/C endpoint: median survival time, dose: 50.0 mg/kg/injection, schedule: Q01DX009 (ip), vehicle: saline): 131 % of control | T/C (T/C endpoint: median survival time, dose: 100.0 mg/kg/injection, schedule: Q01DX009 (ip), vehicle: saline): 134 % of control | T/C (T/C endpoint: median survival time, dose: 400.0 mg/kg/injection, schedule: Q01DX009 (ip), vehicle: saline): 141 % of control

CC(=O)N/N=C/C(C)(C)C(C)(C)/C=N/NC(C)=O
survivor count (T/C endpoint: mean survival time, dose: 400.0 mg/kg/injection, schedule: Q04DX002 (ip), vehicle: saline with Tween-80): 0 of 3

CCCCCCC(C(=O)OCC)P(=O)(OCC)OCC (centres undefined)
survivor count (T/C endpoint: mean survival time, dose: 150.0 mg/kg/injection, schedule: Q04DX003 (ip), vehicle: saline with Tween-80): 3 of 6 | survivor count (T/C endpoint: mean survival time, dose: 300.0 mg/kg/injection, schedule: Q04DX003 (ip), vehicle: saline with Tween-80): 1 of 6

CON(C)N=Nc1ccc(C(N)=O)cc1
T/C (T/C endpoint: mean survival time, dose: 300.0 mg/kg/injection, schedule: Q01DX009 (ip), vehicle: Klucel (hydroxypropylcellulose) (HPC)): 130 % of control

CC(C)OC(=O)N1C(=O)C2C3CCC(O3)C2C1=O (centres undefined)
survivor count (T/C endpoint: mean survival time, dose: 200.0 mg/kg/injection, schedule: Q04DX002 (ip), vehicle: saline with Tween-80): 3 of 3

CCCCCCCCCCCCCCCC(=O)N(C/C=C/CN(CCCN(C)C)C(=O)CCCCCCCCCCCCCCC)CCCN(C)C
survivor count [7]: 0 of 6 | survivor count [2]: 0 of 6 | survivor count [3]: 0 of 6

O=C(O)CCC1(CCC(=O)O)OCCO1.[Ag]
survivor count (T/C endpoint: mean survival time, dose: 75.0 mg/kg/injection, schedule: Q01DX009 (ip), vehicle: saline with Tween-80): 0 of 6

c1ccc(-c2nc(-c3nn[nH]n3)c3ccccc3n2)cc1
survivor count (T/C endpoint: mean survival time, dose: 400.0 mg/kg/injection, schedule: Q01DX001 (ip), vehicle: saline): 0 of 3

C/C(=N\NC(=S)N1CC2CCC(CC2)C1)c1nccs1
T/C (T/C endpoint: median survival time, dose: 25.0 mg/kg/injection, schedule: Q01DX009 (ip), vehicle: saline with Tween-80): 125 % of control | survivor count (T/C endpoint: median survival time, dose: 100.0 mg/kg/injection, schedule: Q01DX009 (ip), vehicle: saline with Tween-80): 2 of 6 and 5 of 6 | survivor count (T/C endpoint: median survival time, dose: 200.0 mg/kg/injection, schedule: Q01DX009 (ip), vehicle: saline with Tween-80): 0 of 6

NCCN.[Ni+2].[O-]c1ccccc1[O-].[O-]c1ccccc1[O-]
survivor count (T/C endpoint: mean survival time, dose: 12.5 mg/kg/injection, schedule: Q01DX009 (ip), vehicle: other): 3 of 6 | survivor count (T/C endpoint: mean survival time, dose: 25.0 mg/kg/injection, schedule: Q01DX009 (ip), vehicle: other): 1 of 6 | survivor count (T/C endpoint: mean survival time, dose: 50.0 mg/kg/injection, schedule: Q01DX009 (ip), vehicle: other): 0 of 6 | survivor count (T/C endpoint: mean survival time, dose: 100.0 mg/kg/injection, schedule: Q01DX009 (ip), vehicle: other): 0 of 6 | survivor count (T/C endpoint: mean survival time, dose: 200.0 mg/kg/injection, schedule: Q01DX009 (ip), vehicle: other): 0 of 6

O=C(O)c1ccc([N+](=O)[O-])cc1.[Ag]
survivor count (T/C endpoint: mean survival time, dose: 25.0 mg/kg/injection, schedule: Q04DX003 (ip), vehicle: saline with Tween-80): 3 of 6 | survivor count [7]: 2 of 6 | survivor count [2]: 1 of 6 | survivor count [3]: 1 of 6

CC(Br)C(=O)NC(CC(N)=O)C(=O)O (centres undefined)
survivor count [3]: 6 of 6

CCCC(C)C/C(C)=C/C(C)(C)C(CC(=O)N1CCOCC1)C(=O)O (centres undefined)
survivor count [5]: 1 of 6 | survivor count [3]: 0 of 6
